Laboratory results taken from CN115433278A.
Results are given in words; binding and its absence hold for the method and conditions named. Some results given as binding are weak or reduced against the parent protein; the word gives no strength.

T1: CS1全长蛋白 on cells (293 cells transfected with a CS1 full-length plasmid; Raji cells) (UniProt Q9NQ25)
T1 sequence (looked up): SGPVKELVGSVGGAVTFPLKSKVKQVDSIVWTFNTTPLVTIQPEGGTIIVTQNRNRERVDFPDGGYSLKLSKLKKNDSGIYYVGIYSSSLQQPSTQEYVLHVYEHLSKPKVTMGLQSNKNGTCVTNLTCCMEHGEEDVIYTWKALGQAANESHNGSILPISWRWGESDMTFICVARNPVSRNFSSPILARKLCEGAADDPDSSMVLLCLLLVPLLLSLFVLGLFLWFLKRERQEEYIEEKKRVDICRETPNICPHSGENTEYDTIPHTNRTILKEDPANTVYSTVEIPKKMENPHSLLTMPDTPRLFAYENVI

B1: 命名为1D12的兔重组单克隆抗体 (rabbit recombinant monoclonal antibody 1D12) (antibody, V domains shown)
VH: QSVEESGGRLVTPGTPLTLTCTVSGFSLSSYGMIWVRQAPGKGLEWIGSINTDGSTYYATWAKGRFTISRTSTTVDLKITSPTTEDTATYFCARGYPGYITDSYYYFNIWGPGTLVTVS
VL: DVVLTQTPASVEAAVRGTVTIKCQASQSISSYLSWYQQKPGQPPKLLIYRASTLESGVPSRFKGSGSGTEFTLTITDLECADAATYYCQCTYGTFHSSGYGFGGGTGVVVK
B2: 命名为2B3的兔重组单克隆抗体 (rabbit recombinant monoclonal antibody 2B3) (antibody, V domains shown)
VH: QSVEESGGRLVTPGTPLTLTCTVSGFSLSAYAMGWFRQAPGKGLEYIGIISDSASTFYATWAKGRFTISRTSSTMVDLKMTSPTTEDTATYFCARAYYVVDNDSPFNMWGPGTVVTVS
VL: VMTQTPSSVSAAVGGTVTINCQASENIYSSLAWYQQKPGQPPKLLIYAASKLESGVPSRFKGSRSETDFTLTISDLECDDAATYYCQSYYDTGRASFAFGGGTEVVVK
B3: 命名为1H2的兔重组单克隆抗体 (rabbit recombinant monoclonal antibody 1H2) (antibody, V domains shown)
VH: QSVEESRGGLIKPTDTLTLTCTVSGFSLSNYGVSWVRQAPGNGLEYIGFIGTIGATLYANWAKSRSTITRNTNLNTVTLKMTSLTAADTATYFCARGIYGDIYVYAFDIWGPGTLVTVSS
VL: AAVLTQTPSPVSAAVGGTVTISCQASQSVRDNGDLAWYQQKPGQPPKLLIYDVSALASGVPSRFKGRGSGTQFTLTISDLECDDAATYSCAGGYIAGSDRWVFGGGTEVVVK

What follows are binders tested against T1, CS1全长蛋白 on cells (293 cells transfected with a CS1 full-length plasmid; Raji cells) (assay: flow cytometry on Raji cells, goat anti-rabbit IgG-488).

| binding | Binder |
| --- | --- |
| binds | B1 |
| binds | B2 |
| binds | B3 |

The binders below were run against T1, CS1全长蛋白 on cells (293 cells transfected with a CS1 full-length plasmid; Raji cells) (assay: flow cytometry on 293 cells transfected with full-length CS1, goat anti-rabbit IgG-488).

| binding | Binder |
| --- | --- |
| binds | B1 |
| binds | B2 |
| binds | B3 |
